Laboratory results: US6986904B2, “Formulation” (AstraZeneca AB, priority 1996, dated 2006)
At least one structure is not confirmed: it was looked up by name or label, or the drawing left a doubt.

Assay: efficacy of metered daily doses of budesonide delivered by nasal spray
Format: in vivo
Details: metered daily doses of 256 μg and 400 μg

CCCC1O[C@@H]2C[C@H]3[C@@H]4CCC5=CC(=O)C=C[C@]5(C)[C@H]4[C@@H](O)C[C@]3(C)[C@]2(C(=O)CO)O1 (stereo partly drawn) [budesonide, 16α,17α-butylidenedioxy-11β,21-dihydroxypregna-1,4-diene-3,20-dione]
efficacy of metered daily doses: equally efficacious
